PubChem BioAssay AID1259267 | Sanger Institute, 2017

Aim: 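Kinase and colorectal-mutated gene knock-downs lethal to GP5D cells alone or with drugs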 (primary screen)
System: human GP5D colorectal cancer cells
Knock-down reagent: siRNA pool against human genes
Conditions: anchor drugs at low dose: BYL719 1 µM, cetuximab 5 µg/ml, trametinib 10 nM, or DMSO vehicle
Read-out: 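Viability against non-targeting pool, replicate mean: robust z-score for knock-down alone, fraction with DMSO, synergy with BYL719 1 µM, cetuximab 5 µg/ml, trametinib 10 nM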
Scale: robust z-score, knock-down alone: higher = more viable cells
Rule for the call: 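Active (essential alone) if knock-down without drug gives robust z-score under -3; drug synergy does not count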
Calls: active = essential alone; inactive = not essential
This is an unselected part of 794 reagents. In the full data, 9 (1.1%) got an active call. 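Viability capped at 1; calls reflect loss of viability from knock-down alone, not synergy with drugs.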 Not all columns of the deposit are shown. No sequences are given here. Not given: the amount of reagent, the time to read-out.

{"gene": "RAD21 (RAD21 cohesin complex component)", "robust z-score, knock-down alone": -0.248, "call": "inactive"}
{"gene": "IPMK (inositol polyphosphate multikinase)", "robust z-score, knock-down alone": 0.379, "call": "inactive"}
{"gene": "PIK3CA", "robust z-score, knock-down alone": -0.0831, "call": "inactive"}
{"gene": "MAP2K3 (mitogen-activated protein kinase kinase 3)", "robust z-score, knock-down alone": -0.829, "call": "inactive"}
{"gene": "INSR (insulin receptor)", "robust z-score, knock-down alone": -0.872, "call": "inactive"}
{"gene": "VRK3 (VRK serine/threonine kinase 3)", "robust z-score, knock-down alone": 0.817, "call": "inactive"}
{"gene": "DGKI (diacylglycerol kinase iota)", "robust z-score, knock-down alone": 0.817, "call": "inactive"}
{"gene": "MAP3K13 (mitogen-activated protein kinase kinase kinase 13)", "robust z-score, knock-down alone": 0.748, "call": "inactive"}
{"gene": "IRAK1 (interleukin 1 receptor associated kinase 1)", "robust z-score, knock-down alone": -1.03, "call": "inactive"}
{"gene": "TSSK6 (testis specific serine kinase 6)", "robust z-score, knock-down alone": 0.519, "call": "inactive"}
{"gene": "CALM1 (calmodulin 1)", "robust z-score, knock-down alone": 0.562, "call": "inactive"}
{"gene": "MARK1 (microtubule affinity regulating kinase 1)", "robust z-score, knock-down alone": 0.188, "call": "inactive"}
{"gene": "PKIB (cAMP-dependent protein kinase inhibitor beta)", "robust z-score, knock-down alone": 0.817, "call": "inactive"}
{"gene": "MINK1 (misshapen like kinase 1)", "robust z-score, knock-down alone": 0.817, "call": "inactive"}
{"gene": "PLK4 (polo like kinase 4)", "robust z-score, knock-down alone": -2.9, "call": "inactive"}
{"gene": "TSKS (testis specific serine kinase substrate)", "robust z-score, knock-down alone": 0.817, "call": "inactive"}
{"gene": "DUSP21 (dual specificity phosphatase 21)", "robust z-score, knock-down alone": 0.817, "call": "inactive"}
{"gene": "PRKD3 (protein kinase D3)", "robust z-score, knock-down alone": 0.817, "call": "inactive"}
{"gene": "STYK1 (STY kinase 1)", "robust z-score, knock-down alone": -1.14, "call": "inactive"}
